Test results as given in the supplement of paper PMC10849652.
This is one part of the list.

Sequences of proteins named here, by UniProt entry; tags and fusion partners are left off. A change or cut given only in a name is not applied to a line headed by its entry.
UniProt O75223: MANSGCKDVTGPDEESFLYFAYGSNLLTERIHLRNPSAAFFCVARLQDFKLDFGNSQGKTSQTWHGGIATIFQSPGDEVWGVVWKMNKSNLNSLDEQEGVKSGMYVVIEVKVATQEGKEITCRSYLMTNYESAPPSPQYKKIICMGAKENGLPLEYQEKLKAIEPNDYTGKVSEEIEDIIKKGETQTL
UniProt Q05932: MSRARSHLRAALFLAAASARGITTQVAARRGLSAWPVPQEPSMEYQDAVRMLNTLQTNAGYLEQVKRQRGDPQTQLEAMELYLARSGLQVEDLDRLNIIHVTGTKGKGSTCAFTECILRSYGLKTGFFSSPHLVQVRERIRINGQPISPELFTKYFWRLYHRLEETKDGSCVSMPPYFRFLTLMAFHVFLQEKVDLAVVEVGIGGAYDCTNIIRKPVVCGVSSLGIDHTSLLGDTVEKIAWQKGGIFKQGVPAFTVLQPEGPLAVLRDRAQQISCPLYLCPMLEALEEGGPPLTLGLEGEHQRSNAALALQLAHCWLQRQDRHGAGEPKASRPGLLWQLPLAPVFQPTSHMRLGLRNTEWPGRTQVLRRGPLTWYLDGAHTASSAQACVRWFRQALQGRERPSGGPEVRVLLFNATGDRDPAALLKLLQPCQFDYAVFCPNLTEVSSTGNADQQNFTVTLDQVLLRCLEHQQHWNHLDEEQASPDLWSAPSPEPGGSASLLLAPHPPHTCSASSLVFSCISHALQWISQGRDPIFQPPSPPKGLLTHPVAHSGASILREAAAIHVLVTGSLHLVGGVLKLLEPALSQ
UniProt Q9H3K2: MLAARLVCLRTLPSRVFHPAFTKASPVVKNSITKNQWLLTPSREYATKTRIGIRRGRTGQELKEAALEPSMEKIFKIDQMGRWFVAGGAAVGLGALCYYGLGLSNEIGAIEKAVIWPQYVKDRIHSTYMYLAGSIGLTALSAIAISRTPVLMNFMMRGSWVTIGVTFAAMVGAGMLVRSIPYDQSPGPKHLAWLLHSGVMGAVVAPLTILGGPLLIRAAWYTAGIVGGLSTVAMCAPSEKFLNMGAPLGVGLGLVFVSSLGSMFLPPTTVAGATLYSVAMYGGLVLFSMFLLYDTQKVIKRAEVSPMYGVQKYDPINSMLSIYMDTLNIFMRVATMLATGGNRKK
UniProt Q86YP4: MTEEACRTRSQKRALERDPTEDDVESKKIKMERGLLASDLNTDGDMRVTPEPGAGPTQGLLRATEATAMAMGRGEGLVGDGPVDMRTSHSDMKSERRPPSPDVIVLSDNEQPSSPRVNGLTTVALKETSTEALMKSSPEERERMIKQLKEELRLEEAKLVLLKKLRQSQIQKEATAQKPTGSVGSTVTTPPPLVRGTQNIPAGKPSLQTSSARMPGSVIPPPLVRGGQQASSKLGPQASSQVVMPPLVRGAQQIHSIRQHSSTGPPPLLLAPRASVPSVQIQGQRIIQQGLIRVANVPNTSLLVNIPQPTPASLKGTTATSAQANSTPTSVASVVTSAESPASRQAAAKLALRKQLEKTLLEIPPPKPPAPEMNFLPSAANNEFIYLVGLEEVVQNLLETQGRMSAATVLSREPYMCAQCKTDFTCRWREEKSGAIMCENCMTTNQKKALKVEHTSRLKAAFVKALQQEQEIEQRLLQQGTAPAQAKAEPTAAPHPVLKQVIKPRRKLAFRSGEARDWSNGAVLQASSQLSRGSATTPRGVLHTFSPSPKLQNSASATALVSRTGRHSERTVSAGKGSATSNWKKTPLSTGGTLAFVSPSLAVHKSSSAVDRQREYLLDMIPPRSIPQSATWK
UniProt Q96CU9: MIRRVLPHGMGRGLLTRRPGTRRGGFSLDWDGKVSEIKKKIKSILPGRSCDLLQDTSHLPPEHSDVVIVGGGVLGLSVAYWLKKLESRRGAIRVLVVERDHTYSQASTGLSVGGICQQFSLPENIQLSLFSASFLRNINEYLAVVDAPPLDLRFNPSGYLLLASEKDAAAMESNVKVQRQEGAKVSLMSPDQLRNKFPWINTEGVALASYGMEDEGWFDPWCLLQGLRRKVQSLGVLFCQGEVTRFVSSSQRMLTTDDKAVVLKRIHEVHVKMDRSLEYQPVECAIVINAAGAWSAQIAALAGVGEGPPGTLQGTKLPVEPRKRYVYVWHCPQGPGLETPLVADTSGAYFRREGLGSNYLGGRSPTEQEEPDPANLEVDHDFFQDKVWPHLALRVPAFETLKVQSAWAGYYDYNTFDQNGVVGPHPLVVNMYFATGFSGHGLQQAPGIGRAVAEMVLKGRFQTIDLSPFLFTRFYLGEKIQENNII
UniProt P0CL80: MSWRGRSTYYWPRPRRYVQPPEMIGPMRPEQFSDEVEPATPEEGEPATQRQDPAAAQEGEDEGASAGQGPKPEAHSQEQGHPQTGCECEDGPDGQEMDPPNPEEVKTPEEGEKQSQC
UniProt P38435: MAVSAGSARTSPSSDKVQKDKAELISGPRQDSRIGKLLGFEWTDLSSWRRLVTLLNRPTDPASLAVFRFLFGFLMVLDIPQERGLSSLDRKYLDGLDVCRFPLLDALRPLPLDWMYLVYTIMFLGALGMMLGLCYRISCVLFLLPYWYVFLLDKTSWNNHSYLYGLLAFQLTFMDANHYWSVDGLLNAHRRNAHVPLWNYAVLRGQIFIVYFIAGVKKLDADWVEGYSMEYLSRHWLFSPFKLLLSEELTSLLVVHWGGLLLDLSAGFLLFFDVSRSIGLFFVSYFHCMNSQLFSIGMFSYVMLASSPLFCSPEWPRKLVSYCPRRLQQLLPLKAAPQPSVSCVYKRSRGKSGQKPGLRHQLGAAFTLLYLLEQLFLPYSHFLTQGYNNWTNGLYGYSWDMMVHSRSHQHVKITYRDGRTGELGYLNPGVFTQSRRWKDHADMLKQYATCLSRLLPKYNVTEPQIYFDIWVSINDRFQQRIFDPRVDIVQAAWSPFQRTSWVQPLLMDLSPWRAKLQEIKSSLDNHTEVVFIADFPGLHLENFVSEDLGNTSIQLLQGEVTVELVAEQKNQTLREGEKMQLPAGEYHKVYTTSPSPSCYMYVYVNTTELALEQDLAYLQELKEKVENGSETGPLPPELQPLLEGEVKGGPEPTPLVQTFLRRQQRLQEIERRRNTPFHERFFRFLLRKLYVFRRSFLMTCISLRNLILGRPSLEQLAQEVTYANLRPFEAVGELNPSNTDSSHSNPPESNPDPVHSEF
UniProt Q9BTY2: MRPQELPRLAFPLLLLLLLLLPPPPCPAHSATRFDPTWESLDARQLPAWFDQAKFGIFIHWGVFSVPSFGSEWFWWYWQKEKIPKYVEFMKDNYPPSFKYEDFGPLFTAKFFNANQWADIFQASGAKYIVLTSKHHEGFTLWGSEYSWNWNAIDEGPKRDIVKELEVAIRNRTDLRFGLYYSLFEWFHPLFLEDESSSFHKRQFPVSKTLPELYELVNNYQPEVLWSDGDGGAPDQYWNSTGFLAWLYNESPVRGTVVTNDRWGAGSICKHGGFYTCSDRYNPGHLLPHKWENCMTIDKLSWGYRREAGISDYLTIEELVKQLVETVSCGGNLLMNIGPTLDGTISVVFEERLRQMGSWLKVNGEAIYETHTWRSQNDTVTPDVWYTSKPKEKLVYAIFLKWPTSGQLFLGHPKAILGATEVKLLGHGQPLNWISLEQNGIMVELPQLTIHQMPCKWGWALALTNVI
UniProt Q01415: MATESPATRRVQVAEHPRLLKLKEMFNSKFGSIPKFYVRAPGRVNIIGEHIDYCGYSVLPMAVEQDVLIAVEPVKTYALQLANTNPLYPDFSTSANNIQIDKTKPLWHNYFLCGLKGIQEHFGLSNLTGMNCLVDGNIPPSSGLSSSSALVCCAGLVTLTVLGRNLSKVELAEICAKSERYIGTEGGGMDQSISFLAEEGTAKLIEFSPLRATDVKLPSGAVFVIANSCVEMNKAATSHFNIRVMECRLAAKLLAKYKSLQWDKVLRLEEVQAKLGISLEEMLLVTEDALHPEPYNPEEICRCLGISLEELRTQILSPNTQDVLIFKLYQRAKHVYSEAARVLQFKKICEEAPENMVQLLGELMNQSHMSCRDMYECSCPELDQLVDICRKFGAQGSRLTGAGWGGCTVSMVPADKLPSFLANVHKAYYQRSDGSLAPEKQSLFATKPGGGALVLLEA
UniProt P23769: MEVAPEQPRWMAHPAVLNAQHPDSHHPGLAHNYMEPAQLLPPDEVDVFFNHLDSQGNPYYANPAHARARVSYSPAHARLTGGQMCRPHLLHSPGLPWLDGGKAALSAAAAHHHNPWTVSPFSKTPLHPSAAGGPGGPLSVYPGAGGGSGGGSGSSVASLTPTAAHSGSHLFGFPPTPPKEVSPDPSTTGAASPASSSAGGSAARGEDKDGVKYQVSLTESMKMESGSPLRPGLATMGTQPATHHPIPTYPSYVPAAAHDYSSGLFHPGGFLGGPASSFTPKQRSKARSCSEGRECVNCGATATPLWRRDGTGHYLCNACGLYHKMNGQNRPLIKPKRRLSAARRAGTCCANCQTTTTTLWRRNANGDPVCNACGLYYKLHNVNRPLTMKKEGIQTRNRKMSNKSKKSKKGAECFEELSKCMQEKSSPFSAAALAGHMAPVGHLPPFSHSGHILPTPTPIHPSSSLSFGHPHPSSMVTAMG
UniProt O14893: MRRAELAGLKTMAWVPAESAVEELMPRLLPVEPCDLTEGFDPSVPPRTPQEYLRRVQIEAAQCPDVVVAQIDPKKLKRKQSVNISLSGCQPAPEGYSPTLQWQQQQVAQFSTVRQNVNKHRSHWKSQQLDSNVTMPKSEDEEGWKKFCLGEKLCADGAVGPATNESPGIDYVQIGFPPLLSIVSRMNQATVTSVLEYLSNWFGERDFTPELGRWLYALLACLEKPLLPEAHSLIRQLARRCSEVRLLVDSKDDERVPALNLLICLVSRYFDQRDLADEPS
UniProt Q70Z53: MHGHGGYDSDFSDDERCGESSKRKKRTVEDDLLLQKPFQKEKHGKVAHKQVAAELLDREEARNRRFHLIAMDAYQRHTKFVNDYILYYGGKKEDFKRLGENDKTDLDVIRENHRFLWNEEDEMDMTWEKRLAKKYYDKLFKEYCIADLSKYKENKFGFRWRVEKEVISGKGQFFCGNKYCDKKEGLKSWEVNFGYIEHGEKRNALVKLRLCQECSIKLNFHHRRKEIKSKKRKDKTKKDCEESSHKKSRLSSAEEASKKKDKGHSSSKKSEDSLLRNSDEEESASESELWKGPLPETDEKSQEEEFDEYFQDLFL
UniProt P15407: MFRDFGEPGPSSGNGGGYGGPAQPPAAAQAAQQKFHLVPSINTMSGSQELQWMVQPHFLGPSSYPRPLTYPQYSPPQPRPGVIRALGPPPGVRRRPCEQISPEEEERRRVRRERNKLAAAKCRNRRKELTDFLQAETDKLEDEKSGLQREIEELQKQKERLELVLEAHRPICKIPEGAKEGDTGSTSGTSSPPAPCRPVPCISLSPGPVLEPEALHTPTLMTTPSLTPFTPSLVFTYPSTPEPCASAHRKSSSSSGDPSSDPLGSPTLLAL
UniProt Q10472: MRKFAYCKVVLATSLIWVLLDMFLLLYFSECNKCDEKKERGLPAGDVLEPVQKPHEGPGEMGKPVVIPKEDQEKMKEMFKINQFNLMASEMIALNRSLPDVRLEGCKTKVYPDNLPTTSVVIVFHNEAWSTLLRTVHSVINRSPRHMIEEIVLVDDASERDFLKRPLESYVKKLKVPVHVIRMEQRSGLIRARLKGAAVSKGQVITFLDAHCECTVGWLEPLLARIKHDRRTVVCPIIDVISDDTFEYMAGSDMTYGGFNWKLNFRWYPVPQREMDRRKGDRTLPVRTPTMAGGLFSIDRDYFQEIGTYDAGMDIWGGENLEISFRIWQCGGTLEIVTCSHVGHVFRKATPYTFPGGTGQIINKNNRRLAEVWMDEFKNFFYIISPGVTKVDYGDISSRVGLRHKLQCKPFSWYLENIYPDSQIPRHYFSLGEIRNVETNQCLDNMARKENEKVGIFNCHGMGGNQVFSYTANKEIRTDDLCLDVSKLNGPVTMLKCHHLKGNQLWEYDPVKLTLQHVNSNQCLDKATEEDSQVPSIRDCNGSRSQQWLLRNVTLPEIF
UniProt Q8NCL4: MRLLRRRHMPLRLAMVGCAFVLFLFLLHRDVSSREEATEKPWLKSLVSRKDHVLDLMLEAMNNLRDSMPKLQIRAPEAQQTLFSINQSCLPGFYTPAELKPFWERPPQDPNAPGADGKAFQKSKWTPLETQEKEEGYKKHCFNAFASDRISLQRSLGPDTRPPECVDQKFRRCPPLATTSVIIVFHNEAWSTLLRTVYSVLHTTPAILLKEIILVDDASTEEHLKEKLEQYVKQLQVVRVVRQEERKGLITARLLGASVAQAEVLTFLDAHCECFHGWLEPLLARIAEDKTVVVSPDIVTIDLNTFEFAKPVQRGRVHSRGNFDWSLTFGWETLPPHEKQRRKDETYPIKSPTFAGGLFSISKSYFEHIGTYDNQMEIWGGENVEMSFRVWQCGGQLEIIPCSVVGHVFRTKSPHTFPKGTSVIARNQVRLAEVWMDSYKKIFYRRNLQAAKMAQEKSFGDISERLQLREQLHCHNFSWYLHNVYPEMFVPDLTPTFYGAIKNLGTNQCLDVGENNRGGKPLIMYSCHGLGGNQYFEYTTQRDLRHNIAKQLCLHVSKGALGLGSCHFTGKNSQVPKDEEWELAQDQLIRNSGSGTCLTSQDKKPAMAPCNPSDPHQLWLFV

How the values were obtained:
Test in all cases: log2 fold change, soluble protein after heating vs DMSO (PISA); higher = thermal stabilisation; K562 cells, 10 uM, 30 min; active = over 0.2 and 3.5 SD of the protein, either way, in both replicates (recomputed)
[1] = compound: CC1=C(C=C(C=C1)NC(=O)C2=CC(=CC=C2)C(C)(C)C#N)NC3=CC4=C(C=C3)N=CN(C4=O)C
How it was run: (§1)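 Soluble protein was defined as the supernatant after 21,000xg for 90 min. It came from K562 cells at 2×10^6 cells/mL given 10 μM compound for 30 min, heated in aliquots for 3 min across 48°C-58°C, pooled, and extracted in PBS with 0.5% NP-40 at 4°C, and was quantified by TMTpro 16plex LC-MS/MS with equalised channel sums. Thermal stability against control samples, from duplicates, is reported as log2 fold change.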

[2] = compound: CC1=C(C=C(C=C1)NC(=O)C2=CC(=CC=C2)N(C)C)NC(=O)C3=CC=C(C=C3)O
How it was run: as §1

[3] = compound: CC1=CC=C(C=C1)SC2=C3C=C(SC3=CN=C2)C(=O)N
How it was run: as §1

[4] = compound: CC1=NC(=CC=C1)C2=C(N=C(N2)C(C)(C)C)C3=CC4=NC=CN=C4C=C3
How it was run: as §1

Nexturastat A = compound: CCCCN(Cc1ccc(C(=O)NO)cc1)C(=O)Nc1ccccc1 [Nexturastat A]
How it was run: as §1

vemurafenib = compound: CCCS(=O)(=O)Nc1ccc(F)c(C(=O)c2c[nH]c3ncc(-c4ccc(Cl)cc4)cc23)c1F [vemurafenib]
How it was run: as §1

[5] = compound: CCCS(=O)(=O)Nc1ccc(F)c(C(=O)c2c[nH]c3ncc(Cl)cc23)c1F
How it was run: as §1

[6] = compound: CCCc1cc(C)[nH]c(=O)c1CNC(=O)c1cc(-c2ccnc(N3CCN(C)CC3)c2)cc2c1cnn2C(C)C
How it was run: as §1

givinostat = compound: CCN(CC)Cc1ccc2cc(COC(=O)Nc3ccc(C(=O)NO)cc3)ccc2c1 [givinostat]
How it was run: as §1

barasertib = compound: CCN(CCCOc1ccc2c(Nc3cc(CC(=O)Nc4cccc(F)c4)[nH]n3)ncnc2c1)CCOP(=O)(O)O [barasertib]
How it was run: as §1

Target	log2 fold change [1]	log2 fold change [2]	log2 fold change [3]	log2 fold change [4]	log2 fold change (Nexturastat A)	log2 fold change (vemurafenib)	log2 fold change [5]	log2 fold change [6]	log2 fold change (givinostat)	log2 fold change (barasertib)
FXN (UniProt Q16595)	inactive: -0.043	inactive: -0.136	inactive: 0.073	inactive: 0.025	inactive: 0.006	inactive: 0.135	inactive: 0.049	inactive: 0.036	inactive: -0.033	inactive: 0.018
GGCT (UniProt O75223)	inactive: 0.02	inactive: 0	inactive: -0.022	inactive: 0.015	inactive: -0.063	inactive: -0.008	inactive: 0.013	inactive: -0.013	inactive: -0.036	inactive: 0.011
FPGS (UniProt Q05932)	inactive: -0.058	inactive: 0.132	inactive: 0.127	inactive: 0.008	inactive: 0.193	inactive: 0.077	inactive: -0.078	inactive: 0.167	inactive: -0.021	inactive: 0.042
GHITM (UniProt Q9H3K2)	inactive: 0.001	inactive: 0.043	inactive: 0.01	inactive: 0.044	inactive: -0.012	inactive: 0.009	inactive: 0.027	inactive: -0.053	inactive: 0.023	inactive: -0.015
GALNT5 (UniProt Q7Z7M9)	inactive: -0.006	inactive: -0.025	inactive: 0.004	inactive: -0.008	inactive: -0.051	inactive: 0.025	inactive: -0.024	inactive: 0.035	inactive: 0.006	inactive: 0.02
GATAD2A isoform 3 (UniProt Q86YP4)	inactive: 0.047	inactive: -0.225	inactive: -0.054	inactive: -0.034	inactive: 0.013	inactive: 0.065	inactive: 0.101	inactive: 0.065	inactive: 0.145	inactive: 0.112
FOXRED1 (UniProt Q96CU9)	inactive: -0.04	inactive: 0.038	inactive: 0.012	inactive: 0.067	inactive: -0.017	inactive: 0.009	inactive: 0.028	inactive: -0.013	inactive: -0.033	inactive: 0.025
GAGE12F (UniProt P0CL80)	inactive: -0.005	inactive: -0.035	inactive: 0.006	inactive: 0.061	inactive: 0.036	inactive: 0.019	inactive: -0.018	inactive: -0.031	inactive: -0.076	inactive: 0.01
GDI2 (UniProt P50395)	inactive: 0.011	inactive: -0.014	inactive: -0.014	inactive: 0.014	inactive: -0.05	inactive: -0.014	inactive: 0.011	inactive: -0.015	inactive: -0.078	inactive: 0.018
GGCX (UniProt P38435)	inactive: 0.052	inactive: 0.038	inactive: 0.009	inactive: -0.062	inactive: 0.022	inactive: -0.018	inactive: 0.001	inactive: 0.132	inactive: 0.098	inactive: 0.037
FUCA2 (UniProt Q9BTY2)	inactive: 0.015	inactive: 0	inactive: 0.016	inactive: -0.02	inactive: -0.025	inactive: 0.005	inactive: -0.053	inactive: -0.025	inactive: -0.028	inactive: -0.01
GALM (UniProt Q96C23)	inactive: -0.05	inactive: -0.023	inactive: -0.038	inactive: -0.009	inactive: -0.075	inactive: 0.023	inactive: -0.024	inactive: 0.228	inactive: -0.006	inactive: 0.032
GID4 (UniProt Q8IVV7)	inactive: 0.028	inactive: 0.003	inactive: -0.07	–	inactive: 0.058	inactive: -0.181	active: -0.271	inactive: -0.035	inactive: -0.03	inactive: -0.1
GALNT10 (UniProt Q86SR1)	inactive: -0.005	–	inactive: 0.038	inactive: -0.204	inactive: -0.035	–	inactive: 0.071	inactive: 0.104	–	inactive: -0.075
GABPB1 (UniProt Q06547)	inactive: 0.036	inactive: 0.019	inactive: 0.002	inactive: -0.06	–	inactive: 0.24	inactive: 0.012	–	inactive: 0.117	inactive: 0.118
GALK2 (UniProt Q01415)	inactive: 0.031	inactive: 0.015	inactive: 0.037	inactive: 0.029	inactive: -0.056	inactive: 0	inactive: 0.013	inactive: -0.049	inactive: -0.046	inactive: 0.005

Complete entries, quoted from the list. Values in the order: log2 fold change [1]	log2 fold change [2]	log2 fold change [3]	log2 fold change [4]	log2 fold change (Nexturastat A)	log2 fold change (vemurafenib)	log2 fold change [5]	log2 fold change [6]	log2 fold change (givinostat)	log2 fold change (barasertib)
FXN (UniProt Q16595) in the list: inactive: -0.043	inactive: -0.136	inactive: 0.073	inactive: 0.025	inactive: 0.006	inactive: 0.135	inactive: 0.049	inactive: 0.036	inactive: -0.033	inactive: 0.018
GALNT5 (UniProt Q7Z7M9) in the list: inactive: -0.006	inactive: -0.025	inactive: 0.004	inactive: -0.008	inactive: -0.051	inactive: 0.025	inactive: -0.024	inactive: 0.035	inactive: 0.006	inactive: 0.02

Additional records

Target	log2 fold change [1]	log2 fold change [2]	log2 fold change [3]	log2 fold change [4]	log2 fold change (Nexturastat A)	log2 fold change (vemurafenib)	log2 fold change [5]	log2 fold change [6]	log2 fold change (givinostat)	log2 fold change (barasertib)
GATA2 (UniProt P23769)	inactive: -0.187	inactive: 0.039	inactive: 0.02	–	–	inactive: 0.015	inactive: 0.002	inactive: 0.003	inactive: -0.087	inactive: -0.01
GC isoform 3 (UniProt P02774)	inactive: -0.003	inactive: 0.459	inactive: 0.682	inactive: -0.305	inactive: 0.035	inactive: 0.215	inactive: 0.018	–	inactive: -0.129	inactive: -0.103
GAS6 isoform 1 (UniProt Q14393)	inactive: -0.028	–	–	–	inactive: -0.04	–	–	–	inactive: 0.014	–
FUT8 (UniProt Q9BYC5)	inactive: -0.05	inactive: -0.047	–	inactive: 0.037	inactive: 0.064	inactive: -0.417	–	inactive: 0.048	inactive: -0.048	inactive: -0.014
GEMIN2 (UniProt O14893)	inactive: -0.073	inactive: 0.033	inactive: 0	inactive: -0.002	inactive: 0.243	inactive: -0.028	inactive: -0.023	inactive: 0.029	–	inactive: 0.078
FRA10AC1 isoform 3 (UniProt Q70Z53)	inactive: -0.068	–	inactive: 0.04	inactive: 0.041	inactive: -0.096	inactive: 0.104	inactive: 0.001	inactive: -0.001	inactive: 0.052	inactive: -0.002
FOPNL (UniProt Q96NB1)	inactive: -0.154	–	inactive: -0.002	inactive: 0.066	inactive: 0.381	inactive: -0.012	inactive: -0.054	inactive: -0.248	inactive: 0.072	inactive: 0.031
FOSL1 (UniProt P15407)	inactive: -0.036	–	inactive: -0.075	inactive: -0.068	inactive: 0.037	inactive: -0.161	inactive: -0.071	inactive: 0.012	inactive: -0.006	inactive: -0.051
FXYD5 (UniProt Q96DB9)	inactive: -0.084	inactive: -0.083	inactive: 0.187	inactive: 0.194	–	inactive: 0.092	inactive: -0.049	–	–	–
GALNT1 (UniProt Q10472)	inactive: -0.004	inactive: 0	inactive: 0.03	inactive: 0.067	inactive: 0.001	inactive: 0.02	inactive: -0.021	inactive: -0.055	inactive: 0.003	inactive: 0.007
GAA (UniProt P10253)	inactive: 0.03	–	–	inactive: 0.168	inactive: 0.03	inactive: 0.071	–	inactive: 0.214	inactive: -0.019	–
GCFC2 (UniProt P16383)	inactive: -0.105	inactive: 0.063	inactive: -0.007	–	inactive: 0.029	inactive: 0.041	inactive: 0.052	inactive: 0.036	inactive: -0.026	inactive: -0.035
FOXJ3 (UniProt Q9UPW0)	–	inactive: 0.122	inactive: -0.078	inactive: 0.029	inactive: -0.033	inactive: 0.077	inactive: -0.044	inactive: -0.101	inactive: 0.032	inactive: 0.115
GALNT6 (UniProt Q8NCL4)	inactive: -0.044	inactive: -0.117	inactive: -0.001	inactive: -0.186	inactive: 0.103	–	inactive: -0.062	inactive: -0.046	inactive: -0.277	inactive: 0.038
FUOM (UniProt A2VDF0)	inactive: -0.076	–	–	inactive: 0.066	–	inactive: 0.126	–	inactive: -0.155	–	inactive: 0.051
FRY (UniProt Q5TBA9)	inactive: 0.026	–	–	–	inactive: -0.202	inactive: 0.075	–	inactive: 0.127	inactive: 0.145	inactive: 0.002
